Patent US20250352579A1 (HEBEI SENLANG BIOTECHNOLOGY, published 2025)

Biological target: T1, CD7 on cells (K562-CD7 positive cells; KG-1a-GFP-Luc; CCRF-CEM) (UniProt P09564 26-240, limits assumed)
T1 sequence (looked up): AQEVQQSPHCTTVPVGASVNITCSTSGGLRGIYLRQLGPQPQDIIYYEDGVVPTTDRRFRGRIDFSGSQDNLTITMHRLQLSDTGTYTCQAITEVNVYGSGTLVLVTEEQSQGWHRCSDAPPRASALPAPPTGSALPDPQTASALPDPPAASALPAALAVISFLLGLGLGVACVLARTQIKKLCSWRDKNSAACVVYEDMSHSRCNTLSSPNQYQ
Experiment: cell-based or functional assay

B1: VHH13 single VHH CAR (other)
chain: QVQLQESGGGLVQAGGSLNLSCTVYGFTADDYAVGWFRQAPGKGRQGISCLSRKDGSKYVADPVLGRATISSDNTKNTVRLTLSALKPDDTAVYYCAAHRFATFCGTRDYEYDYWGQGTQVTVSSTTPAPRPPTPAPTIASQPLSLRPEACRPAAGGAVHTRGLDFACDIYIWAPLAGTCGVLLLSLVITLYCKRGRKKLLYIFKQPFMRPVQTTQEEDGCSCRFPEEEEGGCELRVKFSRSADAPAYKQGQNQLYNELNLGRREEYDVLDKRRGRDPEMGGKPRRKNPQEGLYNELQKDKMAEAYSEIGMKGERRRGKGHDGLYQGLSTATKDTYDALHMQALPPR
- killing ratio, CAR-T cells on KG-1a-GFP-Luc, E:T=3:1, 4 h, luciferase: 1.18%
